# Experimental data published in article PMC12848076, “Identification of two odorant receptors tuned to alarm pheromone compounds in the honey bee Apis mellifera” (Communications Biology, 2025).
# Marks after values point to notes of the source that are not given here.
# Test system: T1, AmelOR136
# T1 construct: full-length ORF, codon-optimized, pUAST.attB at 86F8; expressed in ab3A OSNs of D. melanogaster lacking OR22a/OR22b (empty neuron); endogenous Drosophila Orco as co-receptor; with Odorant receptor coreceptor
# Assay: single sensillum recording, ab3A OSN, dose-response
# Assay type: cell-based, Apis mellifera
# Conditions: agonist; estimated airborne amount in stimulus, not a concentration; vs mineral oil; full curve only in Figure 5A
row,Structure (SMILES),dose of statistical significance [pmol]
1,CCCCOC(C)=O [butyl acetate],56000
2,CC(=O)OCC(C)C [isobutyl acetate],74000
3,CCOC(=O)CC(C)O (stereo not shown) [ethyl-3-hydroxybutyrate],32000
4,CC(=O)OCCC(C)C [isopentyl acetate],27000
